# About 610 (0.18%) of roughly 330,000 compounds were called active. The inconclusive results got no clear call from the source; some entries with a clear call stand among them for comparison. Calls come from the whole dose curve. Potencies beside an inconclusive call are fits to weak or partial responses and may not hold up.
# Experiment: qHTS of Yeast-based Assay for SARS-CoV PLP; note: nearly all actives have a fitted effect of over 55% in size; for activity, positive = growth rescue: 0% is about no effect
# Conditions: S. cerevisiae expressing SARS-CoV PLpro; Potency: growth rescue; activity, positive = growth rescue: at 32.9 µM (top of the series)
# Potency is the fitted concentration of half-maximal effect.
Structure (SMILES),Potency,"activity, positive = growth rescue"
CCc1cc(S(=O)(=O)N2CCN(C(=O)c3ccco3)CC2)ccc1OC,inactive,
Cc1ccc(-c2ccc(/C=N/NC(=O)c3ccccc3O)o2)cc1,inactive,
COc1ccccc1N1C(=O)C2C3C=CC(C3)C2C1=O (configuration not stated),"inconclusive: 12.6 µM [activator, single point]",
Cc1oc(-c2ccccc2Cl)nc1CN1CCCC1c1ccc(F)cc1 (configuration not stated),inactive,
Cc1ccc(NC(=O)COc2ccc(CCO)cc2-n2nc3ccccc3n2)cc1C,"inconclusive: 20 µM [activator, partial curve, poor fit]",
CCC(Sc1ncccc1C(=O)OCCN1CCCC1=O)C(=O)NCc1ccco1 (configuration not stated),inactive,
Cc1ccc(-c2nnc(NC3CCCCC3)c3ccccc23)cc1S(=O)(=O)N1CCN(C)CC1,"inconclusive: 12.6 µM [activator, single point]",
CC(C)NC(=O)CN1C(=O)NC(CCc2ccccc2)C1=O (configuration not stated),active: 3.55 µM,
CCOc1ccccc1NC(=O)c1ccccc1-c1nc(-c2ccccc2)no1,inactive,
C[C@@H](NC(=O)[C@@H]1Cc2ccccc2CN1C(=O)OC(C)(C)C)C(=O)NCC1CCCO1 (some centres not stated),"inconclusive: 3.55 µM [activator, single point]",
CCOc1ccc(S(=O)(=O)NCCC(=O)NCCOc2ccccc2)cc1,"inconclusive: 20 µM [activator, single point]",
Cc1c(N=Cc2c(O)n(Cc3ccccc3)c(=O)[nH]c2=O)c(=O)n(-c2ccccc2)n1C,"inconclusive: 12.6 µM [activator, single point]",
CCc1nnc(NC(=O)CSc2nnc(COc3ccccc3C)o2)s1,"inconclusive: 3.98 µM [activator, single point]",
CC(=O)Nc1ccc(S(=O)(=O)N2CCC(C(=O)N[C@@H](C)C(=O)NC3CCCC3)CC2)cc1,"inconclusive: 2.82 µM [activator, full curve]",
CCC(=O)NC(/C=C/c1ccccc1)c1cc([N+](=O)[O-])c2cccnc2c1O (configuration not stated),active: 2.24 µM,
Cc1ccccc1NC(=O)C1CCCN1S(=O)(=O)c1ccccc1C(F)(F)F (configuration not stated),inactive,
C=C(C)n1c(=O)n(Cc2ccccc2C)c2ccccc21,"inconclusive: 3.55 µM [activator, single point]",
CCOC(=O)[C@H]1[C@H]2COc3ccccc3[C@@H]2N2C(=O)c3ccccc3NC(=O)[C@@]12C,"inconclusive: 20 µM [activator, single point]",
O=C1C=C(c2ccc(O)cc2)C[C@@H](c2ccc(Cl)cc2)C1,inactive,
COc1ccc(NC(=O)CCc2nnc3ccc(N4CCN(c5cccc(OC)c5)CC4)nn23)cc1,inactive,
CCCCCC(C)n1[nH]c(=O)cc1N (configuration not stated),"inconclusive: 4.47 µM [activator, single point]",
Cc1cc(C)cc(-c2nnc(SCC(=O)NC3CC3)o2)c1,"inconclusive: 3.98 µM [activator, single point]",
Cc1cc(C)c2nc(NNC(=O)c3ccc(S(=O)(=O)N4CC(C)CC(C)C4)cc3)sc2c1 (configuration not stated),"inconclusive: 10 µM [activator, partial curve]",
CN(CC(=O)Nc1ccc(Cl)c(C(F)(F)F)c1)C(=O)/C=C/c1cccs1,"inconclusive: 4.47 µM [activator, single point]",

# Some of these compounds in order of molar mass, rising.
Structure (SMILES),Potency,"activity, positive = growth rescue"
CCOC(=O)[C@H]1[C@H]2COc3ccccc3[C@@H]2N2C(=O)c3ccccc3NC(=O)[C@@]12C,"inconclusive: 20 µM [activator, single point]",
Cc1c(N=Cc2c(O)n(Cc3ccccc3)c(=O)[nH]c2=O)c(=O)n(-c2ccccc2)n1C,"inconclusive: 12.6 µM [activator, single point]",
COc1ccc(NC(=O)CCc2nnc3ccc(N4CCN(c5cccc(OC)c5)CC4)nn23)cc1,inactive,

# The list goes on:

Structure (SMILES),Potency,"activity, positive = growth rescue"
CCc1ccccc1NC(=O)CN(c1ccc(OC)cc1OC)S(=O)(=O)c1ccccc1,"inconclusive: 22.4 µM [activator, single point]",
CCOC(=O)c1ccccc1NC(=O)Cc1sc(-c2cccnc2)nc1-c1ccc(C)cc1,inactive,
O=C(NCCCn1ccnc1)/C(=C\c1ccc(Br)cc1)NC(=O)c1ccccc1,"inconclusive: 20 µM [activator, single point]",
COC(=O)C1=C(C)OC(N)=C(C#N)C1c1cc(OC)ccc1OC (configuration not stated),,inconclusive: 32.1% [activator]
COC(=O)C1(C)Cc2cc(OC(C)=O)c(OC(C)=O)cc2N1 (configuration not stated),inactive,
CCOc1cc(/C=N/NC(=O)C(C)Sc2ccccn2)ccc1O (configuration not stated),"inconclusive: 3.16 µM [activator, single point]",
CC(C)(C)C(=O)Nc1ccc(S(=O)(=O)N2CCCC2)cc1,"inconclusive: 3.16 µM [activator, full curve]",
COc1ccc(-c2nnc(SCC(=O)c3ccc(O)cc3O)o2)cc1,inactive,
CC(=O)Nc1cccc(C(=O)OC(C(=O)c2ccc(C)c(C)c2)c2ccccc2)c1 (configuration not stated),inactive,
Nc1c(Cl)cc(-c2[nH]c3cc(C(=O)NCCO)ccc3c(=O)c2O)cc1Cl,"inconclusive: 15.8 µM [activator, single point]",
O=C(Cc1ccc(Cl)cc1)N1CCN(c2ccccc2)CC1,inactive,
CC(=O)OCC1=C(C(=O)O)N2C(=O)C(NC(=O)COc3ccc(F)cc3)C2SC1 (configuration not stated),inactive,
O=c1cc(O)c2c(=O)n(-c3ccccc3)c3c(c2o1)CCCCC3,"inconclusive: 2 µM [activator, full curve]",
O=C(NNC(=O)c1ccc(Br)s1)NC1CCCCC1,inactive,
COc1ccc(N2CC(=O)N(c3ccccc3)C2=S)cc1,inactive,
COc1ccccc1NC(=O)Cn1cnc2sc(C)c(S(=O)(=O)N3CCCCC3)c2c1=O,"inconclusive: 11.2 µM [activator, partial curve]",
Cc1ccc(/C=C/C(=O)Nc2cc(=O)n(C)c(=O)n2C)o1,inactive,
COc1cccc(NC(=O)CN2CCN(CC(=O)Nc3ccc(F)cc3)CC2)c1,inactive,
Cc1nc(SCc2nc3ccc(F)cc3[nH]2)c2oc3ccccc3c2n1,inactive,
O=C1c2ccccc2C(Nc2ccc(S(=O)(=O)N3CCOCC3)cc2)N1Cc1ccco1 (configuration not stated),inactive,
COc1cc([N+](=O)[O-])cc(/C=N/NC(=O)c2ccc(C)nc2)c1O,active: 8.91 µM,
O=C(N/N=C/c1cc2ccccc2nc1Cl)/C(=C/c1cccs1)NC(=O)c1ccccc1,"inconclusive: 4.47 µM [activator, single point]",
CSc1ccc(CCNC(=O)C2CCCN(c3ncnc4c3nc3n4CCCCC3)C2)cc1 (configuration not stated),"inconclusive: 2 µM [activator, full curve]",
CC(=O)N1c2c(cc(Br)cc2S(=O)(=O)N2CCN(C(=O)c3ccco3)CC2)CC1C (configuration not stated),inactive,

Structure (SMILES),Potency,"activity, positive = growth rescue"
CCOc1ccc2nc(SCCNS(=O)(=O)c3ccccc3)sc2c1,inactive,
COc1ccc(NC(=S)NNC(=O)C2CC2c2ccc(C)cc2)cc1 (configuration not stated),"inconclusive: 20 µM [activator, single point]",
O=C(Cn1cnc([N+](=O)[O-])n1)N/N=C/c1cccc2ccccc12,"inconclusive: 17.8 µM [activator, single point]",
NC(=NCCc1ccc(Cl)cc1)NS(=O)(=O)c1ccccc1,"inconclusive: 2.82 µM [activator, full curve]",
O=C(NNC(=S)Nc1cccc(C(F)(F)F)c1)c1ccccc1Cl,"inconclusive: 3.55 µM [activator, full curve]",
C=CCn1c(-c2ccc(Cl)cc2)cnc1SC(C)C(N)=O (configuration not stated),"inconclusive: 10 µM [activator, single point]",
Cc1cc(F)ccc1S(=O)(=O)N1CCCOC1CNC(=O)C(=O)NCCc1ccccc1 (configuration not stated),"inconclusive: 20 µM [activator, single point]",
CC1(C)CC(=O)C2=C(C1)NC1=C(C(=O)c3ccccc31)C2c1ccccc1 (configuration not stated),"inconclusive: 22.4 µM [activator, single point]",
C=CCNc1nc(C(=O)OCC(=O)c2ccc(C)c([N+](=O)[O-])c2)cs1,inactive,
O=C(N/N=C/c1ccc(O)cc1)c1cccc(C(F)(F)F)c1,"inconclusive: 2.51 µM [activator, full curve, poor fit]",
CCCCCCOC(=O)c1ccccc1N,"inconclusive: 22.4 µM [activator, single point]",
COc1cc(/C=C/C(=O)NC(C)C)ccc1OCc1ccccc1,"inconclusive: 22.4 µM [activator, single point]",
CCOC(=O)N1CCC(NC(=O)CS(=O)(=O)Cc2nc(-c3ccccc3C)oc2C)CC1,inactive,
S=C(Nc1ccc(Cl)cc1Cl)N1CCCCC1,"inconclusive: 20 µM [activator, single point]",
COc1ccc2c(c1)c1nc(SCC(C)C)n(CCO)c(=O)c1n2C,inactive,
CCn1cc(CN2CCN(Cc3ccccc3)C(CCO)C2)c2ccccc21 (configuration not stated),"inconclusive: 0.447 µM [activator, full curve]",
CCOC(=O)C1=C2SCC(=O)N2C(N)=C(C#N)C1,"inconclusive: 22.4 µM [activator, single point]",
CN(C(=O)CC1C(=O)NCCN1Cc1ccc(F)cc1Cl)C1CCCCC1 (configuration not stated),"inconclusive: 20 µM [activator, single point]",
CN(c1ccccc1)S(=O)(=O)c1ccc2ccccc2c1,"inconclusive: 2.82 µM [activator, single point]",
CCOc1cccc(OCCOc2ccc(C(=O)c3ccccc3)cc2)c1,"inconclusive: 22.4 µM [activator, partial curve, poor fit]",
Cc1c(C(=O)N2CCN(c3ccccn3)CC2)oc2c1C(=O)CC(C)(C)C2,"inconclusive: 20 µM [activator, single point]",
CN(C)C=Nc1ccc2nn(-c3ccccc3)nc2c1,"inconclusive: 22.4 µM [activator, single point]",
C=CCOc1c2ccc(C(=O)NCc3ccccc3OC)cc2nn1C,inactive,
COc1ccc(OC)c(S(=O)(=O)N2CCC(C(=O)NCC3CCCO3)CC2)c1 (configuration not stated),"inconclusive: 3.16 µM [activator, single point]",

# From PubChem BioAssay AID485353 (National Center for Advancing Translational Sciences (NCATS), 2010)
